Drawing on PubChem BioAssay AID2052 (NMMLSC, 2009), this text covers double positive events for 54 compounds.

Structures are written as SMILES. This is one part of the list.

The nature of the assay: modulators of CD8 T cell-vesicle binding, primary screen, mouse 2C CD8+ T cells, flow cytometry (AID 2052).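 Further: binding gate set so that unloaded-vesicle control wells show 10% double positive cells.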 The settings on record: 2C CD8+ T cell-vesicle binding, measured here: CD8+ vesicle-bound cell fraction, at 7 µM, stronger effect = lower value. Summed up:
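Assay system: 2C TCR transgenic mouse naive CD8+ T cells, MACS-purified | Read-out: CD8+ gate FL2 mean fluorescence as % of same-row positive control | Signal: High-throughput flow cytometry with anti-B7-1 and anti-CD8 staining | Timing: Binding step 1.5 h, 37 °C, antibody labelling 20 min, ice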
A general note: Flow cytometry measures light scatter and fluorescence of single cells or particles in a stream.
Compound `O=[As](O)(O)c1cccnc1` returned a double positive events of 45.2%. `COc1cc(C(=O)NCC2(N3CCOCC3)CCCCC2)cc(Cl)c1OC(C)C` had a double positive events of 43.8%. In the case of `O=C(OC1CN2CCC1CC2)c1ccc(Cl)cc1` (centres undefined), the double positive events worked out at 59.8%.

Compound `COc1ccc(N/C(=N/P(=O)(N2CCOCC2)N2CCOCC2)N2CCOCC2)cc1` had a double positive events of 14.4%.

`COc1cc(I)ccc1[As](=O)(O)O` had a double positive events of 51.8%. As to `COc1ccc2nc(NP(=O)(c3ccccc3)c3ccccc3)sc2c1`, the double positive events worked out at 59.5%. For the compound `Cc1cc(=O)[nH]c(N[N+](=O)[O-])n1`, the double positive events stood at 57.2%. In turn, `CCN(CC)CCCOC(=O)C(O)(c1ccccc1)c1ccccc1` showed a double positive events of 30.3%.

Turning to `O=C(OC1CN2CCC1CC2)C12CC3CC(CC(C3)C1)C2` (centres undefined), the double positive events came out at 41.1%. The compound `Cc1c2c(nc3ccccc13)SC(C(Cl)Cl)C2` (centres undefined) yielded a double positive events of 48.8%.

Regarding `Cc1cc(C)cc(OP(C)(N)=O)c1` (centres undefined), the double positive events was 39.9%.

In turn, `COc1ccc(OP(C)(=O)Nc2cccc(F)c2)cc1` (centres undefined) gave a double positive events of 33.2%. With `O=[N+]([O-])c1cc([N+](=O)[O-])c(-c2ccn[nH]2)s1`, the double positive events amounted to 56.1%. In the case of `CC(C)NC(=O)NP(=O)(Oc1ccccc1)Oc1ccccc1`, the double positive events came out at 63.8%. Consider `COc1ccccc1OP(C)(=O)Nc1cc(Cl)ccc1C` (centres undefined), for which the double positive events came out at 66.3%.

`CCN(CC)C(=S)SC(NC=O)C(Cl)(Cl)Cl` (centres undefined) had a double positive events of 44.3%. `Cc1ccc(NP(C)(=O)Oc2ccccc2)c(C)c1` (centres undefined): the double positive events is 26.9%.

On to `CC(C)c1ccc(OP(=O)(Nc2ccccn2)Oc2ccccc2F)cc1` (centres undefined), for which the double positive events turned out to be 48.5%.

With `COc1ccccc1OP(C)(=O)Nc1ccc(C)cc1` (centres undefined), the double positive events is 21.4%. In turn, `ClCCSc1nnc(-c2cccnc2)o1` registered a double positive events of 45.8%. The compound `CCOC(=O)c1ccc(NP(C)(=O)Oc2ccccc2)cc1` (centres undefined) returned a double positive events of 5.2%. On to `O=[N+]([O-])c1ccc2c(c1)C=Nc1ccccc1O2`, for which the double positive events was found to be 19.5%. `Cc1ccc2nc3c(c(C)c2c1)CC(C(Cl)Cl)S3` (centres undefined): the double positive events turned out to be 59.1%. `Cc1cccc(C)c1OP(C)(N)=O` (centres undefined) showed a double positive events of 39.1%.

In turn, `Cc1ccc(OP(=O)(Nc2ccc([N+](=O)[O-])cn2)Oc2ccc(C)cc2)cc1` yielded a double positive events of 53.3%. For the compound `CC(C)(C)c1ccc(OP(C)(=O)Nc2ccc(SC(F)(F)F)cc2)cc1` (centres undefined), the double positive events was determined as 49.5%.

`COc1cc(C(=O)NCC2(N3CCOCC3)CCCCC2)ccc1OCC(C)C` returned a double positive events of 20.3%.

The compound `C[As](=O)(O)c1cccc(C(=O)O)c1` came in with a double positive events of 23.8%. For the compound `O=[As](O)(c1ccc(O)cc1)c1ccccc1O`, the double positive events amounted to 39.7%. As to `O=[N+]([O-])c1cc([N+](=O)[O-])c(Nc2cccnc2)c([N+](=O)[O-])c1`, the double positive events amounted to 20.1%. For `O=[N+]([O-])c1ccc(Nc2ccc(Oc3ccc([N+](=O)[O-])cc3[N+](=O)[O-])cc2)c([N+](=O)[O-])c1` the value was 17.3%. Compound `CP(=O)(Nc1ccccc1Br)Oc1ccccc1` (centres undefined) returned a double positive events of 53.6%. Under `COc1ccccc1OP(C)(=O)Nc1ccccc1` (centres undefined) stands 34.9%; under `Cc1cc(SC(NC=O)C(Cl)(Cl)Cl)ncn1` (centres undefined), 58.4%. On to `O=P(Nc1ccccn1)(c1cccc2ccccc12)c1cccc2ccccc12`, for which the double positive events was determined as 54.1%.

As for `CCOC(=O)Nc1cccc([As](=O)(O)O)c1`, the double positive events was 52%. For the compound `CP(=S)(Nn1cnnc1)Oc1ccccc1` (centres undefined), the double positive events was 48%.

`Cc1cc(SC(NC(=O)c2ccccc2)C(Cl)(Cl)Cl)nc(C(C)C)n1` (centres undefined): the double positive events is 41.7%. With `CCOC(=O)Nc1ccc([As](=O)(O)O)c(O)c1`, the double positive events stood at 25.3%. Compound `CCC(C)N(CC(C)C)C(=S)SC(NC(C)=O)C(Cl)(Cl)Cl` (centres undefined) gave a double positive events of 5.5%. In the case of `O=[N+]([O-])c1cc([N+](=O)[O-])c(O)c([N+](=O)[O-])c1.c1ccc(Oc2ccncc2)cc1`, the double positive events was 55.5%. As to `CCOC(=O)c1ccc(NP(C)(=O)Oc2ccc(OC)cc2)cc1` (centres undefined), the double positive events came to 42.7%. In turn, `CCOC(=O)c1ccc(NC(=O)C(C)(CCl)SC)cc1` (centres undefined) displayed a double positive events of 27.9%.

In turn, `O=C(OC1CN2CCC1CC2)c1cccc([N+](=O)[O-])c1` (centres undefined) gave a double positive events of 18.2%. In turn, `CCOP(C)(=S)SCC(=O)NC(C)C(=O)O` (centres undefined) yielded a double positive events of 29.9%.

Regarding `O=C(Nc1ccncc1[N+](=O)[O-])c1ccc([N+](=O)[O-])cc1[N+](=O)[O-]`, the double positive events worked out at 14%. `Cc1cc(C)cc(OP(C)(=O)Nc2ccc(SC(F)(F)F)cc2)c1` (centres undefined) yielded a double positive events of 54.8%.

`CP(=O)(NC(=O)Nc1ccccc1)Oc1ccccc1` (centres undefined) came in with a double positive events of 27.5%. As for `O=C(COc1ccccc1)OC1CN2CCC1CC2` (centres undefined), the double positive events worked out at 26.1%.

Regarding `CCc1ccc(OP(C)(=O)N2CCN(c3ccc([N+](=O)[O-])cc3)CC2)cc1` (centres undefined), the double positive events amounted to 22%. For `CP(=O)(Oc1ccccc1)OC(c1ccccc1)C(F)(F)F` (centres undefined) the value was 27.1%. On to `COP1(=S)c2c(C)nn(CCC#N)c2N=C(c2ccc(F)cc2)N1C` (centres undefined), for which the double positive events amounted to 8.2%. Compound `CP(=O)(Nc1ccc(SC(F)(F)F)cc1)Oc1ccc(Cl)cc1` (centres undefined) gave a double positive events of 43.9%. Turning to `Cc1cccc(C)c1OP(C)(=O)Nc1ccc(SC(F)(F)F)cc1` (centres undefined), the double positive events came to 33.5%.
